The match of structure and compound is tentative.

The results in this text go back to patent publication US20070004791A1, “3,6-disubstituted azabicyclo {3.1.0} hexane derivatives useful as muscarnic receptor antagonists” (priority 2002, published 2007).

This assay deals with isolated rat bladder.

Consider `O=C(NC[C@@H]1[C@H]2CN(CCc3ccc4c(c3)OCO4)C[C@@H]12)C(O)(c1ccccc1)C1CCCC1` (relative stereo), for which the Kb is 61.7 nM.
